Results taken from PMC3095302.
These are yes or no findings as the source states them, for the method shown.

Key:
[1] = target: T1, DDB1a (UniProt Q9M0V3); assay: two-hybrid; yeast two-hybrid assay; bait, prey and conditions not told
T1 sequence: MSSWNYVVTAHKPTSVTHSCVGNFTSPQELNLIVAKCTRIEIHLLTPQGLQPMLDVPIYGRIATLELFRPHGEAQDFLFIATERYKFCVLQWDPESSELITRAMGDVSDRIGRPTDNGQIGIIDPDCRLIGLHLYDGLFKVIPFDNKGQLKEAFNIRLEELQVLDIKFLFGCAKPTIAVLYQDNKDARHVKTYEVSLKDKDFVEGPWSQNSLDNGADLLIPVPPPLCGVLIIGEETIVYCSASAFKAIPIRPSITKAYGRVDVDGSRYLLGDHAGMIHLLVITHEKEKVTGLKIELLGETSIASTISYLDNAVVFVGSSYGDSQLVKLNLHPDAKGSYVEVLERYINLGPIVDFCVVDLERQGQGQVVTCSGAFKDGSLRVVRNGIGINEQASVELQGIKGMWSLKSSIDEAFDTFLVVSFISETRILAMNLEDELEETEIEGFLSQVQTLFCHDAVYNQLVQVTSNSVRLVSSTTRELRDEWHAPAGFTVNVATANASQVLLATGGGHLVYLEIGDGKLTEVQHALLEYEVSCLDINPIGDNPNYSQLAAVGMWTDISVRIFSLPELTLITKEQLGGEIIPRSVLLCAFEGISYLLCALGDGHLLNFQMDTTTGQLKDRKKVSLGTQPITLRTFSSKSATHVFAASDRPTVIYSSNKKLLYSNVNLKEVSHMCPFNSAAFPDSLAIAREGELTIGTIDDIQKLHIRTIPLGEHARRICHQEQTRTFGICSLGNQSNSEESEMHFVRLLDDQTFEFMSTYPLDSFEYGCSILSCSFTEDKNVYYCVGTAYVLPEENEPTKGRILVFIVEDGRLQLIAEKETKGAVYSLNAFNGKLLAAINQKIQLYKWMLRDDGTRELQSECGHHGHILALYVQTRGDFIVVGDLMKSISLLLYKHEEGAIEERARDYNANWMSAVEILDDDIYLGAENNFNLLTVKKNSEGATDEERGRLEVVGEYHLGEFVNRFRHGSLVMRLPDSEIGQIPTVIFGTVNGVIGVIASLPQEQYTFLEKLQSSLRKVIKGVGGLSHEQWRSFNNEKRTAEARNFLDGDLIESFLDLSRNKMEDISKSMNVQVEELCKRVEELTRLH

[2] = target: T2, DDB1b (UniProt O49552); assay: as above
T2 sequence: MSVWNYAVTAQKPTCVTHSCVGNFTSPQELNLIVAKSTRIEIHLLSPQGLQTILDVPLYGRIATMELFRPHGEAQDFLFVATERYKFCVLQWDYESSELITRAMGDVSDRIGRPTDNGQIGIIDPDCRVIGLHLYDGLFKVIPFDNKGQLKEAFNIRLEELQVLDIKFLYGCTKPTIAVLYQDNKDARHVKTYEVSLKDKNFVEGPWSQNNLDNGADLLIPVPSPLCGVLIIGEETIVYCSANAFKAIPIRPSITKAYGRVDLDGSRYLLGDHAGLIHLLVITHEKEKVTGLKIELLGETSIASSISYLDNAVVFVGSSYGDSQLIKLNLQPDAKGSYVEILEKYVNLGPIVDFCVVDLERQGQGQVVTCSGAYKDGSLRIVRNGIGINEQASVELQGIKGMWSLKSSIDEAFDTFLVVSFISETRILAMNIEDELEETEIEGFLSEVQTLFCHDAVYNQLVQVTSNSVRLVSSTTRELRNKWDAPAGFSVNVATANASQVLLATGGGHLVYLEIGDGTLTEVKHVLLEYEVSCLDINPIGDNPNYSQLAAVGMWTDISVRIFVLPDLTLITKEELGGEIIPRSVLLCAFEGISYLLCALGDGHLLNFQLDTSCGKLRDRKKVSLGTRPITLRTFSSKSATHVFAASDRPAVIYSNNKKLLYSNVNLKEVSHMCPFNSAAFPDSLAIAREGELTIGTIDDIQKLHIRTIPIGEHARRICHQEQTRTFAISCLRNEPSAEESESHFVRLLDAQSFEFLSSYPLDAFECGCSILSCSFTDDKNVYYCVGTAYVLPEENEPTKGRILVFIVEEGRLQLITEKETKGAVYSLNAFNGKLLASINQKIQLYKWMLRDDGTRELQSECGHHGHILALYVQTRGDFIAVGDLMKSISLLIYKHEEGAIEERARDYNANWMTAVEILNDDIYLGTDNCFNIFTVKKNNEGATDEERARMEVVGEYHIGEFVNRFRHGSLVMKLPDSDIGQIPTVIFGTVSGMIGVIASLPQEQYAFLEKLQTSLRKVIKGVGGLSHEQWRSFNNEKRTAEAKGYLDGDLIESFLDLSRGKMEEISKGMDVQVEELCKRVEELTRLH

B1: YAO (full length) (protein, UniProt Q9M0V4 1-504)
chain: MKYNNEKKKGGSFKRGGKKGSNERDPFFEEEPKKRRKVSYDDDDIESVDSDAEENGFTGGDEDGRRVDGEVEDEDEFADETAGEKRKRLAEEMLNRRREAMRREREEADNDDDDDEDDDETIKKSLMQKQQEDSGRIRRLIASRVQEPLSTDGFSVIVKHRRSVVSVALSDDDSRGFSASKDGTIMHWDVSSGKTDKYIWPSDEILKSHGMKLREPRNKNHSRESLALAVSSDGRYLATGGVDRHVHIWDVRTREHVQAFPGHRNTVSCLCFRYGTSELYSGSFDRTVKVWNVEDKAFITENHGHQGEILAIDALRKERALTVGRDRTMLYHKVPESTRMIYRAPASSLESCCFISDNEYLSGSDNGTVALWGMLKKKPVFVFKNAHQDIPDGITTNGILENGDHEPVNNNCSANSWVNAVATSRGSDLAASGAGNGFVRLWAVETNAIRPLYELPLTGFVNSLAFAKSGKFLIAGVGQETRFGRWGCLKSAQNGVAIHPLRLA
- binding [1]: no binding
- binding [2]: no binding
